In all, about 220,000 compounds went through this assay and about 910 (0.41%) were called active. The inconclusive results got no clear call from the source; some entries with a clear call stand among them for comparison.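 Rule for the calls: active = primary inhibition above the hit cutoff, then over 50% inhibition at one or more dose response concentrations (cut at about 23% in these data, passing the limit was not always enough); inconclusive = conflicting primary data, or primary hits not chosen for dose response; inactive = low primary inhibition, or under 50% at every dose.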
These compounds were tested against Aminopeptidase N (Plasmodium falciparum (isolate 3D7)) (UniProt O96935) (assay: P. falciparum M1AAP inhibitors, biochemical, fluorogenic H-Leu-NHMec substrate, 1536-well (AID 1445;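 note: plate controls were DMSO full reaction for no effect and no enzyme background for full effect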)). Conditions: recombinant M1AAP, H-Leu-NHMec fluorogenic kinetic assay; at 30 µM, hits give high values unless noted.

The chains behind the UniProt entries cited, without tags or fusion partners. Where a name states a change or a piece, a line headed by the entry shows the natural chain unless it says otherwise.
UniProt O96935: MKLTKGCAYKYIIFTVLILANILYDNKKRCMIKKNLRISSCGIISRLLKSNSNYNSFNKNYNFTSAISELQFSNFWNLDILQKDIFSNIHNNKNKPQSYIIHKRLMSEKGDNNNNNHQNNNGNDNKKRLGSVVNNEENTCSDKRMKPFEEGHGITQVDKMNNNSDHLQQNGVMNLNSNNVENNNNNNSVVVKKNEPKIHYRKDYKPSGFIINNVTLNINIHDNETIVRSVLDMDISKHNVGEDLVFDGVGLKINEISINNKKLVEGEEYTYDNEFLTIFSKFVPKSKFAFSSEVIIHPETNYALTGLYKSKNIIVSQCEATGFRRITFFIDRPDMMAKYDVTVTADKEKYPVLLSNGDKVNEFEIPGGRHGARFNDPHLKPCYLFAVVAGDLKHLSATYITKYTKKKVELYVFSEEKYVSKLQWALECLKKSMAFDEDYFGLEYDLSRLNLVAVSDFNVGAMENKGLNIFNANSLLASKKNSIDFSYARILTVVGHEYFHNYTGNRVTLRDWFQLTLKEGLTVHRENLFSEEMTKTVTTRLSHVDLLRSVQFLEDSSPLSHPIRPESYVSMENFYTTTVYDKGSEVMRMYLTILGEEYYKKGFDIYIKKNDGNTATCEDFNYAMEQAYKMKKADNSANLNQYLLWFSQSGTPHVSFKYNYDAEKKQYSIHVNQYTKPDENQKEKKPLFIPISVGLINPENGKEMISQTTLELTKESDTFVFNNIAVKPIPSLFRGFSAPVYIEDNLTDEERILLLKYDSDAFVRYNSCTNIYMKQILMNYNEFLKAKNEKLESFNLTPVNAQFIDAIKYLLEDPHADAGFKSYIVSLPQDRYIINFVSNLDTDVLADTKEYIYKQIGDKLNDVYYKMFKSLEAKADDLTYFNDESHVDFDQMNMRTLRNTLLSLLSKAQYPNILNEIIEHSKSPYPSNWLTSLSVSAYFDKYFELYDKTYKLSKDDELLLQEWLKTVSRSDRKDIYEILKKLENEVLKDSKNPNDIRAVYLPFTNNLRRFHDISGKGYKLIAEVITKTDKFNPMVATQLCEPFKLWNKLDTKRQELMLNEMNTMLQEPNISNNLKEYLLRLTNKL

Compound	inhibition
Cc1ccc(Cc2cc(C)n[nH]c2=O)cc1	inactive: 9.53%
CCOc1ccc(/C=C2\SC(=S)N(NS(=O)(=O)c3ccccc3)C2=O)cc1OC	inconclusive: 27.8%
CSc1c[n+]2c(n1C)CCC2	inconclusive: 21.2%
FC(F)(F)c1cc(-c2cccs2)nc2ncnn12	inactive: 14.3%
COc1cc(C(=S)N2CCOCC2)ccc1OC(=O)c1cc([N+](=O)[O-])cc([N+](=O)[O-])c1	inactive: 4.71%
O=C(Nc1ccc(F)cc1F)c1ccccc1-c1ccccc1	inactive: -1.46%
CC(Sc1nc(N)cc(=O)[nH]1)C(=O)Nc1cccc(Cl)c1 (stereo not given)	inactive: 14.1%
COc1ccc2c(CC(=O)NCC3CCC(C(=O)O)CC3)cc(=O)oc2c1 (stereo not given)	inactive: 3.73%
COc1ccc(-c2nn(-c3ccccc3)cc2/C=C/C(=O)OCC(=O)Nc2cccc(C#N)c2)cc1	inactive: 0.99%
O=C1OC(c2cccs2)=N/C1=C\c1ccc(-c2cccc(Cl)c2)o1	active: 24.5%
NS(=O)(=O)c1ccc(CCNC(=O)CSc2ccccc2)cc1	inconclusive: 23.6%
O=c1c2ccccc2nnn1Cc1ccccc1Cl	inactive: -2.79%
CCOc1cc(/C=C2/C(=O)N(c3ccccc3)N=C2C)ccc1OC(=O)c1ccco1	inconclusive: 25.7%
CCOC(=O)C1CCN(C(=O)COc2ccc(N(C)S(=O)(=O)c3ccc(OCC)cc3)cc2)CC1	inactive: -2.18%
O=C(COC(=O)COc1ccc(Cl)cc1)NC1CCCCC1	inconclusive: 25.2%
COc1c(-c2ccc(O)c(O)c2)oc2cc(O)cc(O)c2c1=O	inconclusive: 24.4%
C=CCc1cc(C)ccc1OCCn1ccnc1	inconclusive: 27.4%
CCOC(=O)CC1C(=O)NCCN1c1nc2c(C)cccn2c(=O)c1/C=C1\SC(=S)N(C(C)CC)C1=O (stereo not given)	inconclusive: 40%
Cc1ccc(SCc2[nH]nc3c2C2(C(=O)N(C)c4ccccc42)C(C#N)=C(N)O3)cc1 (stereo not given)	inactive: 5.03%
COc1ccc([N+](=O)[O-])cc1N(CC(O)CN1CCCC1)S(=O)(=O)c1ccc(C)cc1 (stereo not given)	inactive: 2.31%
CC(=O)Nc1ccc(S(=O)(=O)Nc2cccc(-c3cn4c(n3)SCC4)c2)cc1	inconclusive: 30.4%
CCOC(=O)c1c(NC(=O)c2ccc(-n3cnnn3)cc2)sc2c1CCCC2	inactive: 3.69%
Cc1ccc(S(=O)(=O)Nn2c(O)c(C=C3N=c4ccccc4=N3)sc2=S)cc1	inconclusive: 27.1%
CC(=O)Nc1nc(SCC(=O)NCc2ccc(F)cc2)[nH]c(=O)c1NC(=O)c1cccs1	inconclusive: 26.7%
CC(=O)Nc1ccccc1-c1nc2ccc(C(=O)N3CCN(c4ccccc4)CC3)cc2[nH]c1=O	active: 28%
Cc1c(C(=O)OCc2ccccc2)[nH]c2c1C(=O)CC(c1ccco1)C2 (stereo not given)	inactive: 6.2%
CSc1ncc(Cl)c(C(=O)Nc2nnc(SC/C=C/c3ccccc3)s2)n1	inactive: 30%
N/C(=N\NC(=O)c1ccc(Cl)cc1)c1cnccn1	inconclusive: 26.6%

3 entries already listed, sorted by molar mass, falling.
Compound	inhibition
CCOC(=O)CC1C(=O)NCCN1c1nc2c(C)cccn2c(=O)c1/C=C1\SC(=S)N(C(C)CC)C1=O (stereo not given)	inconclusive: 40%
CSc1ncc(Cl)c(C(=O)Nc2nnc(SC/C=C/c3ccccc3)s2)n1	inactive: 30%
Cc1ccc(S(=O)(=O)Nn2c(O)c(C=C3N=c4ccccc4=N3)sc2=S)cc1	inconclusive: 27.1%

(more compounds)

Compound	inhibition
CCCS(=O)(=O)N1CCCC(C(=O)NCCN(CC)CC)C1 (stereo not given)	inconclusive: 24.5%
O=C(NN1C(=O)c2cc(Br)ccc2NC1c1cc(Br)cc(Br)c1O)c1ccncc1 (stereo not given)	inactive: 15.9%
Cc1ccsc1C1NC(=O)c2c(sc3c2CCCC3)N1 (stereo not given)	inactive: -10.2%
Cc1cccc2sc(NC(=O)CNS(=O)(=O)c3ccc(Br)s3)nc12	inconclusive: 23.7%
CN(C1=C(NC(=O)c2ccccc2)C(=O)c2ccccc2C1=O)C1CCS(=O)(=O)C1 (stereo not given)	inconclusive: 24.5%
COc1ccccc1NC(=O)CSc1nnc(-c2ccoc2C)n1CCc1ccccc1	active: 24.7%
COc1ccccc1Nc1nnc(SCC(=O)N2CCCC2=O)s1	inconclusive: 26.5%
O=C(O)c1ccc(COc2ccc3ccccc3c2/C=C2/NC(=O)N(c3ccccc3)C2=O)cc1	inconclusive: 24.6%
O=c1/c(=C\c2cc([N+](=O)[O-])cc([N+](=O)[O-])c2O)sc2nc3ccccc3n12	inconclusive: 78.7%
Cc1cnc(C(=O)Nc2nnc(SCc3c(Cl)cccc3Cl)s2)cn1	inconclusive: 26.5%
CC/C(=C\C1CCCCC1)C(NP(=O)(c1ccccc1)c1ccccc1)c1ccccc1 (stereo not given)	inactive: 5.64%
CC(=O)c1cccc(NC(=O)N2CCCC2C(=O)Nc2cc(C)ccc2C)c1 (stereo not given)	inactive: -1.28%
Cc1ccc(NC(=S)N(CCCN2CCN(C)CC2)Cc2cccs2)cc1C	inconclusive: 25.4%
O=c1[nH]c(SCc2nc3ccccc3c(=O)n2-c2ccccc2C(F)(F)F)nc2ccccc12	inconclusive: 25.9%
CCOC(=O)c1c(C)oc2ccc(NS(=O)(=O)c3ccc(C(=O)O)cc3)cc12	inactive: 10.2%
Oc1c(Br)cc2oc3c(c2c1CNCc1ccccc1)CCCC3	active: 33.9%
CC(=O)Nc1ccc(C(=O)N/N=C/c2cc(Br)cc(Br)c2O)cc1	inconclusive: 25.7%
CCN1C(=O)c2cccc3c(S(=O)(=O)Nc4nc(C)cs4)ccc1c23	inconclusive: 33.8%
O=C1C(C2=NC(C(=O)O)C3C(=O)N(c4ccc(Cl)cc4)C(=O)C23)=C(O)c2ccccc21 (stereo not given)	active: 25.7%
Cc1cccc(OCCCCc2c(C)n[nH]c2C)c1C	inconclusive: 27.4%
CCCCc1nc(Cl)c(C#N)c2c1CSC(C)(C)C2	inactive: 0.12%
Cc1ccc(C(=O)N(NC2=NS(=O)(=O)c3ccccc32)S(=O)(=O)c2ccc(C)cc2)cc1	inconclusive: 32.3%
CCCS(=O)(=O)c1c(S(=O)(=O)CCC)c2cc(-c3ccncc3)ccn2c1C(=O)OC	inconclusive: 25.1%
C=CCn1c(=O)c2c(nc3n2CC(C)CN3c2cccc(OC)c2)n(C)c1=O (stereo not given)	active: 26.4%
Cn1c(=O)c(Nc2ccc(O)cc2)c2c3c(cccc31)C(=O)c1ccccc1-2	inconclusive: 28.1%
Cc1ccc(NC(=S)C2=C(O)c3sccc3N(C)S2(=O)=O)cc1	active: 25.2%
CCSCc1nnc(SCC(=O)Nc2nc3ccccc3s2)n1C	inconclusive: 26.1%
